This is an account of results in US12558324B2, “Application of R-ketamine and salt thereof as pharmaceuticals” (National University Corporation Chiba University, priority 2013, dated 2026).

Molecules are shown by their SMILES.

Series [1] has as its system mice exposed neonatally to DEX. The series can be described thus: Locomotion test (LMT) in DEX-treated mice. The settings on record: DEX-treated juvenile mice; 10 mg/kg i.p. single injection; day after injection; vs control and saline groups.
The test system of series [2] is social defeat stress mice. The series can be described thus: Locomotion test (LMT) in social defeat stress mice. The note with it: 10 mg/kg i.p. single injection, 2 days after injection, vs normal and saline groups.

`CN[C@@]1(c2ccccc2Cl)CCCCC1=O.Cl` [R(−)-ketamine, R(−)-ketamine hydrochloride]: the “locomotion in the LMT (count/60 min)” value in series [1] and in series [2] was “no difference in locomotion” in each case.

For the compound `CN[C@]1(c2ccccc2Cl)CCCCC1=O.Cl` [S(+)-ketamine, S(+)-ketamine hydrochloride], the “locomotion in the LMT (count/60 min)” value in series [1] and in series [2] was “no difference in locomotion” each time.
